# In the supplement of paper PMC8728848:
# The other results are listed elsewhere or left out.
# Assays:
# Assay in all cases: glycan array binding signal (z-score within array); higher = stronger binding
# Conditions in all cases: glycan notation: IUPAC condensed, linker removed
# [1] = biological target: Neu5Ac(a2-6)GlcNAc(b1-4)GlcNAc(b1-4)GlcNAc
# Summary of the method: (§1)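 Glycan array binding is given as a within-array Z-score, which can be read as non-binding when negative. The arrays, 3228 of them, came from the Consortium for Functional Glycomics database and were retained only where the protein sequence was available. Z-scores were averaged across arrays of the same protein sequence at different concentrations or buffers and across linkers.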
# Neu5Ac(a2-8)Neu5Ac = biological target: Neu5Ac(a2-8)Neu5Ac
# Summary of the method: as §1
# [2] = biological target: Neu5Ac(a2-8)Neu5Ac(a2-3)Gal(b1-3)GalNAc(b1-4)[Neu5Ac(a2-3)]Gal(b1-4)Glc
# Summary of the method: as §1
# [3] = biological target: Neu5Ac(a2-8)Neu5Ac(a2-3)Gal(b1-3)GalNAc(b1-4)[Neu5Ac(a2-8)Neu5Ac(a2-3)]Gal(b1-4)Glc
# Summary of the method: as §1
# [4] = biological target: Neu5Ac(a2-8)Neu5Ac(a2-3)Gal(b1-4)Glc
# Summary of the method: as §1
# [5] = biological target: Neu5Ac(a2-8)Neu5Ac(a2-3)Gal(b1-4)GlcNAc
# Summary of the method: as §1
# [6] = biological target: Neu5Ac(a2-8)Neu5Ac(a2-3)[Gal(b1-3)GalNAc(b1-4)]Gal(b1-4)Glc
# Summary of the method: as §1
# [7] = biological target: Neu5Ac(a2-8)Neu5Ac(a2-3)[GalNAc(b1-4)]Gal(b1-4)Glc
# Summary of the method: as §1
# [8] = biological target: Neu5Ac(a2-8)Neu5Ac(a2-8)Neu5Ac
# Summary of the method: as §1
# [9] = biological target: Neu5Ac(a2-8)Neu5Ac(a2-8)Neu5Ac(a2-3)Gal(b1-4)Glc
# Summary of the method: as §1
# [10] = biological target: Neu5Ac(a2-8)Neu5Ac(a2-8)Neu5Ac(a2-3)[Gal(b1-3)GalNAc(b1-4)]Gal(b1-4)Glc
# Summary of the method: as §1
# [11] = biological target: Neu5Ac(a2-8)Neu5Ac(a2-8)Neu5Ac(a2-3)[GalNAc(b1-4)]Gal(b1-4)Glc
# Summary of the method: as §1
# [12] = biological target: Neu5Ac(a2-8)Neu5Ac(a2-8)Neu5Ac(a2-8)Neu5Ac(a2-3)[GalNAc(b1-4)]Gal(b1-4)Glc
# Summary of the method: as §1
# [13] = biological target: Neu5Ac(a2-8)Neu5Gc(a2-3)Gal(b1-4)GlcNAc
# Summary of the method: as §1
# [14] = biological target: Neu5Ac(b2-6)Gal(b1-4)GlcNAc
# Summary of the method: as §1
# Neu5Ac(b2-6)GalNAc = biological target: Neu5Ac(b2-6)GalNAc
# Summary of the method: as §1
# [15] = biological target: Neu5Ac9Ac(a2-3)Gal(b1-3)GlcNAc
# Summary of the method: as §1
# [16] = biological target: Neu5Ac9Ac(a2-3)Gal(b1-4)GlcNAc
# Summary of the method: as §1
# [17] = biological target: Neu5Ac9Ac(a2-6)Gal(b1-4)GlcNAc
# Summary of the method: as §1
# [18] = biological target: Neu5Gc(a2-3)Gal(b1-3)GlcNAc
# Summary of the method: as §1
# [19] = biological target: Neu5Gc(a2-3)Gal(b1-3)[Fuc(a1-4)]GlcNAc
# Summary of the method: as §1
# Neu5Gc(a2-3)Gal(b1-4)Glc = biological target: Neu5Gc(a2-3)Gal(b1-4)Glc
# Summary of the method: as §1
# [20] = biological target: Neu5Gc(a2-3)Gal(b1-4)GlcNAc
# Summary of the method: as §1
# [21] = biological target: Neu5Gc(a2-3)Gal(b1-4)GlcNAc(b1-3)Gal(b1-4)GlcNAc(b1-2)Man(a1-3)[Neu5Gc(a2-3)Gal(b1-4)GlcNAc(b1-3)Gal(b1-4)GlcNAc(b1-2)Man(a1-6)]Man(b1-4)GlcNAc(b1-4)GlcNAc
# Summary of the method: as §1
# [22] = biological target: Neu5Gc(a2-3)Gal(b1-4)[Fuc(a1-3)]GlcNAc
# Summary of the method: as §1
# [23] = biological target: Neu5Gc(a2-6)Gal(b1-4)GlcNAc
# Summary of the method: as §1
# Neu5Gc(a2-6)GalNAc = biological target: Neu5Gc(a2-6)GalNAc
# Summary of the method: as §1
# [24] = biological target: Neu5Gc(a2-8)Neu5Ac(a2-3)Gal(b1-4)GlcNAc
# Summary of the method: as §1
# [25] = biological target: Neu5Gc(a2-8)Neu5Gc(a2-3)Gal(b1-4)GlcNAc
# Summary of the method: as §1
# [26] = biological target: Neu5Gc(a2-8)Neu5Gc(a2-3)Gal(b1-4)GlcNAc(b1-3)Gal(b1-4)GlcNAc
# Summary of the method: as §1
# [27] = biological target: Neu5Gc(a2-8)Neu5Gc(a2-6)Gal(b1-4)GlcNAc
# Summary of the method: as §1
# [28] = biological target: Neu5Gc(b2-6)Gal(b1-4)GlcNAc
# Summary of the method: as §1
binder,measurement,setting,value
CM2 (Cordyceps militaris) (protein) MEIAEQNVGKSCAIVNLIPPKEGSNIWTAKQVTIARNLPPNRGTGRHQIDWSFGPVKVTGYVDTTNWEIGVTVSIMGIDLGTVYGNLRDGVVLNVDLFLAKGQVRFYLKNGNEVWVHLSVEIRFDGKFEGDYKIITV,glycan array binding signal (z-score),[1],-0.919
same,glycan array binding signal (z-score),Neu5Ac(a2-8)Neu5Ac,-0.43
same,glycan array binding signal (z-score),[2],-0.16
same,glycan array binding signal (z-score),[3],0.161
same,glycan array binding signal (z-score),[4],-0.496
same,glycan array binding signal (z-score),[5],-1.84
same,glycan array binding signal (z-score),[6],-0.036
same,glycan array binding signal (z-score),[7],-1.4
same,glycan array binding signal (z-score),[8],0.451
same,glycan array binding signal (z-score),[9],0.46
same,glycan array binding signal (z-score),[10],-0.622
same,glycan array binding signal (z-score),[11],1.56
same,glycan array binding signal (z-score),[12],-0.964
same,glycan array binding signal (z-score),[13],-1.52
same,glycan array binding signal (z-score),[14],-0.375
same,glycan array binding signal (z-score),Neu5Ac(b2-6)GalNAc,-0.438
same,glycan array binding signal (z-score),[15],-0.873
same,glycan array binding signal (z-score),[16],-0.725
same,glycan array binding signal (z-score),[17],-0.168
same,glycan array binding signal (z-score),[18],1.54
same,glycan array binding signal (z-score),[19],-0.29
same,glycan array binding signal (z-score),Neu5Gc(a2-3)Gal(b1-4)Glc,1.76
same,glycan array binding signal (z-score),[20],-2.11
same,glycan array binding signal (z-score),[21],-1.5
same,glycan array binding signal (z-score),[22],-1.07
same,glycan array binding signal (z-score),[23],2.22
same,glycan array binding signal (z-score),Neu5Gc(a2-6)GalNAc,-1.22
same,glycan array binding signal (z-score),[24],-0.302
same,glycan array binding signal (z-score),[25],0.593
same,glycan array binding signal (z-score),[26],-0.074
same,glycan array binding signal (z-score),[27],-0.469
same,glycan array binding signal (z-score),[28],-0.922

# An excerpt of these results, with tabs.
binder	measurement	setting	value
CM2 (Cordyceps militaris) (protein) MEIAEQNVGKSCAIVNLIPPKEGSNIWTAKQVTIARNLPPNRGTGRHQIDWSFGPVKVTGYVDTTNWEIGVTVSIMGIDLGTVYGNLRDGVVLNVDLFLAKGQVRFYLKNGNEVWVHLSVEIRFDGKFEGDYKIITV	glycan array binding signal (z-score)	[1]	-0.919
same	glycan array binding signal (z-score)	[4]	-0.496
